These are yes or no findings as the source states them, for the method shown. Binding seen in cells or lysates may run through a third protein. Some entries that bind do so weakly or less than the wild type. Tags and fused reporters may be left off the sequences shown.
Biological target: T1, Flag-tagged SNX17 (plasmid pECE-M2-Snx17-Flag) (UniProt Q15036)
T1 sequence: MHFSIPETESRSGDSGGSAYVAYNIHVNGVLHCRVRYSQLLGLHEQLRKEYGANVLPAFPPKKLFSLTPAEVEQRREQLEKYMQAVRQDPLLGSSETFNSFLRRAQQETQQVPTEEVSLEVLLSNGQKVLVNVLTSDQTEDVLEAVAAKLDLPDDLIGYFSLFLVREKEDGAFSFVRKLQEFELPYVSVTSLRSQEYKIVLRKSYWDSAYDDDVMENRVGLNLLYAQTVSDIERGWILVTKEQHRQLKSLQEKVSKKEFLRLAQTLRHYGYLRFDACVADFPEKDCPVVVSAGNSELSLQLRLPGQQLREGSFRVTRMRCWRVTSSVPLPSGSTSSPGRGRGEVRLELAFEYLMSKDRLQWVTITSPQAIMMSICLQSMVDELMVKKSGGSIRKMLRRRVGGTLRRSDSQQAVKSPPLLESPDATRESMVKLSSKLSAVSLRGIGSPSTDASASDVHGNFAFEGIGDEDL
Assay: co-IP

The chains behind the UniProt entries cited, without tags or fusion partners. Residues count along the entry.
UniProt O75197, residues 32-1615: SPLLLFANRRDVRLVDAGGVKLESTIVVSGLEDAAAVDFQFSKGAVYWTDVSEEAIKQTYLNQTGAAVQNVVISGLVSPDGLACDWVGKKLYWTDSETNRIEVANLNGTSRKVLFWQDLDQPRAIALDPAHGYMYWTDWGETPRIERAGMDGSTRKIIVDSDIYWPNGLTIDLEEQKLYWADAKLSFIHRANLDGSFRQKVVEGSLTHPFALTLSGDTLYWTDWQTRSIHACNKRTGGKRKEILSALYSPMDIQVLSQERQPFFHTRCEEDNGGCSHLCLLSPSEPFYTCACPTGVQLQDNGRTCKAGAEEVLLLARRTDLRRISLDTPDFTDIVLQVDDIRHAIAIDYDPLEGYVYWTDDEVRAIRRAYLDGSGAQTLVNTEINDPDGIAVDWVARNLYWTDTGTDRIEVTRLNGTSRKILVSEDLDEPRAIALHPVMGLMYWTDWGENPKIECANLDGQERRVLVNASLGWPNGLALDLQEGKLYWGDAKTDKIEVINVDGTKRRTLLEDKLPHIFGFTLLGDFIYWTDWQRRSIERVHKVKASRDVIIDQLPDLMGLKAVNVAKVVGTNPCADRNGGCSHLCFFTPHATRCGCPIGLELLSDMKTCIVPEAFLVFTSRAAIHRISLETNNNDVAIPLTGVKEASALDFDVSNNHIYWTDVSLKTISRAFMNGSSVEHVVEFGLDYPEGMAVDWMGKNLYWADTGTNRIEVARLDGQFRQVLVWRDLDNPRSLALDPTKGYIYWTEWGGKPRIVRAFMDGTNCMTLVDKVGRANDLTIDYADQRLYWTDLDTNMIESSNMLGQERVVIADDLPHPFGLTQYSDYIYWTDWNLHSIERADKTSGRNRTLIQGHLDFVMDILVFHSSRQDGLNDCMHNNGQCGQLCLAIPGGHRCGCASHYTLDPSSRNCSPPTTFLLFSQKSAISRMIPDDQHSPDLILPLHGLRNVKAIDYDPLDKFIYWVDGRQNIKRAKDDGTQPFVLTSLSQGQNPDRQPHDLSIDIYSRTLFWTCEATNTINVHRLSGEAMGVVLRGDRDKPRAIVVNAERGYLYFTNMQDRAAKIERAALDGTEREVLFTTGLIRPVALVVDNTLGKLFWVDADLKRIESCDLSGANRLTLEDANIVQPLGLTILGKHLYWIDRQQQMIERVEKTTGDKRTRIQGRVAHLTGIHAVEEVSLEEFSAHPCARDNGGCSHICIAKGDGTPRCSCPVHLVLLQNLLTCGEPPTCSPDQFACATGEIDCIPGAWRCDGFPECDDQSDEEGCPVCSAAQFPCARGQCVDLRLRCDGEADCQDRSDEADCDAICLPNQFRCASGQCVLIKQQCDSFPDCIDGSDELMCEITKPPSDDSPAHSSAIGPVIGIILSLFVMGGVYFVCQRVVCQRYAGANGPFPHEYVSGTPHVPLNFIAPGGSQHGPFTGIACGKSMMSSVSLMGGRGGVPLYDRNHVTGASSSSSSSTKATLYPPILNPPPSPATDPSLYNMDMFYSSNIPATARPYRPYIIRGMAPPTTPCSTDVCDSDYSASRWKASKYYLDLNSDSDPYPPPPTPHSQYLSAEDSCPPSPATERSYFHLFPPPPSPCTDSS

Substance	binding
LRP5 (low-density lipoprotein receptor-related protein 5), endogenous (from UniProt O75197 32-1615)	binds
Myc-tagged LRP5 (low-density lipoprotein receptor-related protein 5; plasmid pcDNA3.1-Lrp5-myc-His) (from UniProt O75197 32-1615)	binds

Reference: doi:10.1101/747592
